Results reported in article PMC7819943, “Rice protein-binding microarrays: a tool to detect cis-acting elements near promoter regions in rice”.
The list shows a part of the results.

Each sequence was assayed against T1, OsSMF1 (Oryza sativa, UniProt Q6ZLB0 1-436) (assay: protein-binding microarray (RPBM); PBS, 2% BSA, 51.3 ng/ul salmon testes DNA, 50 uM zinc acetate, 200 nM TF, 25 C, 1 h; high values mean tight binding). Details: protein: recombinant; tags: N-terminal polyhistidine and DsRed monomer fusion (pET32a); chain copies: 2; label: CyDye5-dUTP incorporated in the synthesized complementary strand; 3' TTTTT single-stranded linker to array surface; dsDNA, one strand shown.
T1 sequence: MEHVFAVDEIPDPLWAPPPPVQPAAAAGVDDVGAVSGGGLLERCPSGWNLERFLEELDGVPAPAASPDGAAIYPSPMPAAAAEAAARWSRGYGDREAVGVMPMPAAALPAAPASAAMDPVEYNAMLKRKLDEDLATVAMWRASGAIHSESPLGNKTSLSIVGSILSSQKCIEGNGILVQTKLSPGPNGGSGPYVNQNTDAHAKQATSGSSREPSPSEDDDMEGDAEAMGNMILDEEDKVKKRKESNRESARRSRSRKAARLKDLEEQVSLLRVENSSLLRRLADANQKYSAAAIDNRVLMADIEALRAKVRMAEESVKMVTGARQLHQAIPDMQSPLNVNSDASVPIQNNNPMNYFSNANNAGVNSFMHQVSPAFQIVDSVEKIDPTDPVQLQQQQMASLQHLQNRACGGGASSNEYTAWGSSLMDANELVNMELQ
How it was run: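 The binding signal is fluorescence intensity per array feature (arbitrary units). Readings came from an Axon 4000B scanner after a washed, 2% BSA-blocked, double-stranded custom Agilent array had been incubated for 1 h at 25 °C with 200 nM protein and 50 µM zinc acetate. The protein was a Ni–NTA-purified transcription factor fused N-terminally to polyhistidine and DsRed, expressed in E. coli BL21-CodonPlus.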
“TCTTCTTCTTCTTCCTTCCAAATTGCAAATCGCAATGCCACGGAGTCACCTAGTGCAG” was tested, and the binding signal was 3160 fluorescence intensity (a.u.). For “AAGAAACCCAACTATTAAATCCACAAGTAATCATAGAAAACGGAGTCACCTAGTGCAG”, the binding signal was 32800 fluorescence intensity (a.u.). For “TCGTCTCTCTGTGTATGTTCATGGGTCCCACATAGCAATTCGGAGTCACCTAGTGCAG”, the binding signal was 3220 fluorescence intensity (a.u.). For “AGCGGCGCACATGGGGCGAGCGAGGAGGGGTGCCACGTAACGGAGTCACCTAGTGCAG”, the binding signal was 8360 fluorescence intensity (a.u.). “CGGCGAAGCAGAGCGCAGAGCGGAGGGTAGAGTGCGTCATCGGAGTCACCTAGTGCAG” was tested, and the binding signal was 3920 fluorescence intensity (a.u.). For “CCTAGCCCCTCCCCTCCCCGTGCTCTCGCCCTCGTCTCCTCGGAGTCACCTAGTGCAG”, the binding signal was 14000 fluorescence intensity (a.u.). For “ATCCACCCTCTATTCATCTACTCGGTTAGATGATCATTCACGGAGTCACCTAGTGCAG”, the binding signal was 3300 fluorescence intensity (a.u.). For “TCGGCGGGGATGTCGTCGGTGGCGAGGTCGCCGGAGCGGACGGAGTCACCTAGTGCAG”, the binding signal was 6700 fluorescence intensity (a.u.). For “CTCCTGGTTGCACACCACCATGTCATCGCCGGATGTTGCCCGGAGTCACCTAGTGCAG”, the binding signal was 5270 fluorescence intensity (a.u.). For “AAGAGGATGGCTGGGAGGATGACATGTGGAGCCCACATGGCGGAGTCACCTAGTGCAG”, the binding signal was 4450 fluorescence intensity (a.u.). For “GAGGGTTGCGACGCCGAAAGACGCCGTCGTCATCCGTCCACGGAGTCACCTAGTGCAG”, the binding signal was 3710 fluorescence intensity (a.u.). In the case of “CGGCCCCACCCTCCACTGTCCCCACCTCGTCAGTCACCGCCGGAGTCACCTAGTGCAG”, the binding signal was 24300 fluorescence intensity (a.u.). With “CTTATCACGCAATCACACTAGATGAGCACGATCTAGCTTGCGGAGTCACCTAGTGCAG” the binding signal was 3140 fluorescence intensity (a.u.). “GCACCTCTTTCCTATCACGCGTCACCTTGCTCCATTGTCGCGGAGTCACCTAGTGCAG” was tested, and the binding signal was 5900 fluorescence intensity (a.u.). “GGGGTCGCGGAGAGGGAAGAAGGCGTGGCGCGCCAACATCCGGAGTCACCTAGTGCAG” was tested, and the binding signal was 30000 fluorescence intensity (a.u.). For “GGTCTGTGGCCAGTCATCTTTTATTGGTTATCCTAACACTCGGAGTCACCTAGTGCAG”, the binding signal was 3660 fluorescence intensity (a.u.). “CAAAGAGGGATCATGAACTCGCAAAGTCTGTTTGGACGATCGGAGTCACCTAGTGCAG” was tested, and the binding signal was 29700 fluorescence intensity (a.u.). With “AAAATTCAGGAACACGACGTAGTATATACGCGTCATGCATCGGAGTCACCTAGTGCAG” the binding signal was 5650 fluorescence intensity (a.u.). In the case of “ATATTGTCACGTGTCACATGTTAGTTTGTTCAGGAACGGACGGAGTCACCTAGTGCAG”, the binding signal was 5880 fluorescence intensity (a.u.). For “GAGATGAAAATGGGGCCCGTTCACCGTTTCCCCGCAGTGACGGAGTCACCTAGTGCAG”, the binding signal was 3530 fluorescence intensity (a.u.). With “TTCCTCCGTTTCACAATGTAAGATTTTCTAGCATTGCCCACGGAGTCACCTAGTGCAG” the binding signal was 4800 fluorescence intensity (a.u.). For “CGCGTGGCTAACGTCACCCAAAACCCAGCTCAGCAAATAGCGGAGTCACCTAGTGCAG”, the binding signal was 5590 fluorescence intensity (a.u.). With “TTTCATGATGAATCTACGTATACACTCCATCTTCCTGTTGCGGAGTCACCTAGTGCAG” the binding signal was 4320 fluorescence intensity (a.u.).
